Experimental data published in the supplement of paper PMC6331611.
± gives the standard deviation of the averaged measurements. This list holds what a sample rich in lowest values left over.

Tests used:
[1] = tested on: Salmonella enterica serovar Typhimurium SL1344; test: normalized growth (OD600, IQM-normalized) in LPM (fraction of plate interquartile mean); higher = more bacterial growth (less inhibition); settings: LPM pH 5.8; 10 µM; 16 h
[2] = tested on: Salmonella enterica serovar Typhimurium SL1344; test: normalized intracellular growth (luminescence, IQM-normalized) in RAW264.7 macrophages (fraction of plate interquartile mean); higher = more bacterial growth (less inhibition); settings: 10 µM

| SMILES | normalized growth [1] | normalized intracellular growth ([2]; time point: T3 (3 h)) | normalized intracellular growth ([2]; time point: Tfinal (~6 h)) |
| --- | --- | --- | --- |
| CN1[C@@H]2CC[C@H]1C[C@@H](OC(=O)C(O)c1ccccc1)C2 (stereo partly specified) | 0.951 ± 0.11 | 1.01 ± 0.077 | 1.1 ± 0.14 |
| CCOc1cc(NC(C)=O)ccc1C(=O)OC | 1.07 ± 0.021 | 0.991 ± 0.061 | 1.01 ± 0.22 |
